# The supplement of paper PMC3334620
# Whole data set: some 33,000 sequences, median “E-score (-0.5 to 0.5)” near -0.0034, cut for the highest 2% near 0.25. The list shows a part of the results.
# Molecular target: T1, Yap3 (UniProt P38749)
# T1 sequence: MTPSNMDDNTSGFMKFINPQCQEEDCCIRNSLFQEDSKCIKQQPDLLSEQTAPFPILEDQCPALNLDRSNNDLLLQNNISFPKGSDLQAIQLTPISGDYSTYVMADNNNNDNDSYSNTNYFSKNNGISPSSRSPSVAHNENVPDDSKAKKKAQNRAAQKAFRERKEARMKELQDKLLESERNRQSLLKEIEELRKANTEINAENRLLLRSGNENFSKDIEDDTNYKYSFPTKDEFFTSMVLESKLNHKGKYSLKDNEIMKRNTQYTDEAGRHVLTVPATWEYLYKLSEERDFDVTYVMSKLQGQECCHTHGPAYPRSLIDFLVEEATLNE
# Test: PBM E-score (8-mer binding enrichment) (E-score (-0.5 to 0.5)); higher = stronger / more preferred TF binding
# Settings: protein concentration: 100 nM; construct: GST-full length
# Description: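 Universal 'all 10-mer' protein binding microarrays (Agilent AMADID 015681) probed with GST-tagged S. cerevisiae TFs (full-length or DBD) made by in vitro transcription/translation (PURExpress), about 100-200 nM. Bound TF was detected with fluorescent anti-GST. Each ungapped 8-mer (which stands for itself and its reverse complement) is scored by the PBM enrichment score (E-score), a modified Wilcoxon-Mann-Whitney statistic from -0.5 to +0.5, computed with the Universal PBM Analysis Suite. Scale: above 0.35 generally sequence-specific binding.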
row,Sequence,PBM E-score
1,TACCGAAA,0.0737
2,AACAAGCG,0.178
3,ATGCTTAG,0.17
4,AAGAAGCT,-0.0904
5,AACATGGT,0.0858
6,GGAGCTAA,-0.0484
7,CAAACTCC,-0.0365
8,GATAGGCA,0.00307
9,AGAGACAA,-0.077
10,TGAGCTAA,-0.0651
11,AGGATTAA,0.177
12,CGCGTGAA,0.0861
13,GAACTGGA,0.0625
14,TATGAAAA,0.225
15,ATGGTCAG,0.202
16,GCCGACCA,-0.174
17,CATAGGGG,-0.078
18,GGACGCCA,-0.117
19,AGGTAAGG,0.0835
20,CGAGCCGC,0.0378
21,ATCCTAAC,0.124
22,AGACTACT,0.0569
23,ACAAATGA,0.0725
24,TAGGAAAA,0.0741
25,CAATATTA,0.226

# Shown tab-delimited: entries from further up.
row	Sequence	PBM E-score
11	AGGATTAA	0.177
12	CGCGTGAA	0.0861
13	GAACTGGA	0.0625

# (continued)

row,Sequence,PBM E-score
1,CTCCTAAA,-0.21
2,ACCGCTTA,-0.038
3,CCGTCTTA,-0.151
4,CCCTGTCC,-0.276
5,AATGAAGC,0.0863
6,GACTTGAC,-0.115
7,CAGCAAGA,0.142
8,CTGCAAAC,-0.12
9,CGCCATTA,0.023
10,ATGTAATC,0.121
11,GCGGCAAA,0.00339
12,AATCCCCC,-0.229
13,CGAATGTA,0.0967
14,AATCGCTG,-0.0893
15,AGAGCTGA,-0.13
16,AGAGATTG,0.0916
17,AGTCGGCA,-0.0266
18,GCGCAGCC,-0.256
19,AGGCGGAG,-0.0405
20,ATTGTTCC,0.13
21,AAGCTCGG,-0.0555
22,AAGTCACT,0.0396
23,CACACGTC,-0.065
24,ACTCCCGG,-0.2
25,CAGATGTC,-0.0742

# At a glance, part of the list above.
row,Sequence,PBM E-score
14,AATCGCTG,-0.0893
15,AGAGCTGA,-0.13
16,AGAGATTG,0.0916
17,AGTCGGCA,-0.0266

# The list goes on.

row,Sequence,PBM E-score
1,GGCTGCCA,-0.278
2,CCCCGTAC,-0.231
3,AACGGAGC,-0.11
4,TCATCAGA,-0.0246
5,ACCCATGC,0.0299
6,AGACACCG,-0.11
7,TATTTCGA,0.293
8,AACCAACG,-0.126
9,GGTGGTAC,-0.223
10,ATGACAGC,0.0738
11,GAGGAAGC,-0.268
12,GATGGAGA,0.0511
13,CCTCCCTA,-0.2
14,CTCAGCTC,-0.181
15,CGACCAAC,-0.0192
16,AATACTAG,0.221
17,GGGAACAC,0.0871
18,AAGATCTC,-0.15
19,CTCTACCC,0.0889
20,CTTTAAGC,0.0717
21,CTCGATCC,-0.0821
22,ACGGGGCC,-0.182
23,AGACCACG,-0.103
24,GTGCGAAA,0.0342
25,GTGGAAAA,0.171

# Laid out differently: entries from further up
row | Sequence | PBM E-score
7 | TATTTCGA | 0.293
8 | AACCAACG | -0.126

# Further entries follow:

row,Sequence,PBM E-score
1,AGGACTTC,-0.239
2,AAACAAGA,0.183
3,AGCAGCGC,-0.0668
4,GGTGAGTA,0.0543
5,AGACCCAA,0.0569
6,CGCGCCAC,0.0775
7,CACTCATC,0.0972
8,CCAGCGTC,-0.304
9,AGTAGCAA,0.147
10,CAAAACCC,0.11
11,ACACGAAA,0.116
12,ACGGTGCG,-0.00317
13,GTCAATTA,0.111
14,TAGTTATA,0.248
15,GAGATCCA,-0.12
16,GACAATGC,0.0992
17,CGCGATCC,-0.0417
18,AATTCCGA,0.181
19,AGATCTGG,-0.162
20,GGCAACAA,0.0652
21,AGAGATTC,0.0265
22,ATTTCACA,0.198
23,ATTCTGAG,0.0149
24,TATTGTCA,0.176
25,ACATGCCT,-0.0931

row,Sequence,PBM E-score
1,CATCTTCG,-0.0195
2,GTCACTGA,-0.121
3,CTTACAAA,0.19
4,ACCGCCGA,-0.0464
5,AAATCCCC,-0.159
6,ACGTCTAC,-0.0283
7,CCAGAGCG,-0.147
8,AACTTGGC,0.0892
9,CTAACTAA,0.175
10,ATGCTCGC,0.0848
11,AGCCTGAA,-0.0763
12,AAGTCGCC,-0.262
13,GTGGGCAA,-0.0581
14,GCGCTAAC,0.0488
15,ATCGGAAC,0.113
16,ACCCCACG,-0.143
17,CCTGGACC,-0.205
18,CAGGCAAA,0.139
19,CATGAATA,0.0196
20,AACGCCTA,0.0419
21,ACACACTC,0.186
22,GGAGCGGA,-0.168
23,AGGCCTGC,-0.105
24,AGTCCTCG,-0.143
25,CGGGAACG,-0.071

row,Sequence,PBM E-score
1,ACCCCGAG,-0.134
2,CATCGACA,-0.132
3,ATCACACA,0.146
4,AAGTGTGG,-0.00116
5,ACTGACGG,-0.0998
6,ACTCCCTC,-0.223
7,ACCATTGG,0.0207
8,GACGCATA,0.0801
9,ACCCAAGA,-0.105
10,AGAGAGTC,-0.035
11,AGCGAGCC,-0.122
12,GTTTCAGA,-0.0672
13,GACGTACA,0.0264
14,CCGTCGGC,-0.189
15,GAAATAGC,0.098
16,CAACCCGG,-0.275
17,ATAGTAAA,0.238
18,TGATCAAA,0.0113
19,AACCGCCA,-0.1
20,CTGCGGCA,-0.239
21,CGTTACCC,-0.116
22,CCAGTCAC,-0.111
23,ATGCTAAC,-0.064
24,ACTCCGAC,-0.0296
25,ACGGGTGG,-0.147

row,Sequence,PBM E-score
1,CATAACAA,0.18
2,CTCAGAAG,-0.218
3,CCACCTAA,-0.0162
4,AGACCGCT,-0.161
5,CATCGAGA,0.0462
6,GTGGGAGA,-0.13
7,CGACCGAG,-0.0733
8,CAACTTGC,-0.111
9,CAATGGTG,-0.213
10,ATGGTTCC,0.0898
11,AAAATTGC,0.0358
12,AGCTCTGG,-0.167
13,CGCGCACA,0.125
14,AAAATGTC,0.119
15,ACCCATCG,-0.123
16,CCTACACA,0.181
17,ATGCCGGG,-0.152
18,TCAGCTGA,0.104
19,ACCATCCG,0.0113
20,ACTTTGCG,0.052
21,ATGAGCAG,-0.182
22,ACGGTAGA,-0.0586
